{
  "source": "ChEMBL document CHEMBL4316593",
  "about": "(Eur J Med Chem, 2019)",
  "type_in_all_cases": "cell-based",
  "conditions_in_all_cases": "U-87MG ATCC",
  "key": {"[1]": {"experiment": "Inhibition of RTK/PI3K/AKT/mTOR signaling in human U87 cells assessed as down regulation of membrane associated ring-CH-type finger 3 gene expression at cytotoxic IC50 measured after 48 hrs relative to control"}, "[2]": {"experiment": "Inhibition of RTK/PI3K/AKT/mTOR signaling in human U87 cells assessed as down regulation of CYTOR gene expression at cytotoxic IC50 measured after 48 hrs relative to control"}, "[3]": {"experiment": "Inhibition of RTK/PI3K/AKT/mTOR signaling in human U87 cells assessed as down regulation of ZWINT gene expression at cytotoxic IC50 measured after 48 hrs relative to control"}, "[4]": {"experiment": "Inhibition of RTK/PI3K/AKT/mTOR signaling in human U87 cells assessed as down regulation of DCLRE1B gene expression at cytotoxic IC50 measured after 48 hrs relative to control"}, "[5]": {"experiment": "Inhibition of RTK/PI3K/AKT/mTOR signaling in human U87 cells assessed as down regulation of TAB3 gene expression at cytotoxic IC50 measured after 48 hrs relative to control"}, "[6]": {"experiment": "Inhibition of RTK/PI3K/AKT/mTOR signaling in human U87 cells assessed as down regulation of SNX30 gene expression at cytotoxic IC50 measured after 48 hrs relative to control"}, "[7]": {"experiment": "Inhibition of RTK/PI3K/AKT/mTOR signaling in human U87 cells assessed as down regulation of LRWD1 gene expression at cytotoxic IC50 measured after 48 hrs relative to control"}, "[8]": {"experiment": "Inhibition of RTK/PI3K/AKT/mTOR signaling in human U87 cells assessed as down regulation of RNF115 gene expression at cytotoxic IC50 measured after 48 hrs relative to control"}, "[9]": {"experiment": "Inhibition of RTK/PI3K/AKT/mTOR signaling in human U87 cells assessed as down regulation of ASCC2 gene expression at cytotoxic IC50 measured after 48 hrs relative to control"}, "[10]": {"experiment": "Inhibition of RTK/PI3K/AKT/mTOR signaling in human U87 cells assessed as down regulation of H2AFZ gene expression at cytotoxic IC50 measured after 48 hrs relative to control"}, "[11]": {"experiment": "Inhibition of RTK/PI3K/AKT/mTOR signaling in human U87 cells assessed as down regulation of CRNKL1 gene expression at cytotoxic IC50 measured after 48 hrs relative to control"}, "[12]": {"experiment": "Inhibition of RTK/PI3K/AKT/mTOR signaling in human U87 cells assessed as down regulation of CDK6 gene expression at cytotoxic IC50 measured after 48 hrs relative to control"}, "[13]": {"experiment": "Inhibition of RTK/PI3K/AKT/mTOR signaling in human U87 cells assessed as down regulation of SPATS2L gene expression at cytotoxic IC50 measured after 48 hrs relative to control"}, "[14]": {"experiment": "Inhibition of RTK/PI3K/AKT/mTOR signaling in human U87 cells assessed as down regulation of CACUL1 gene expression at cytotoxic IC50 measured after 48 hrs relative to control"}, "[15]": {"experiment": "Inhibition of RTK/PI3K/AKT/mTOR signaling in human U87 cells assessed as down regulation of MDC1 gene expression at cytotoxic IC50 measured after 48 hrs relative to control"}, "[16]": {"experiment": "Inhibition of RTK/PI3K/AKT/mTOR signaling in human U87 cells assessed as up regulation of S100A14 gene expression at cytotoxic IC50 measured after 48 hrs relative to control"}, "[17]": {"experiment": "Inhibition of RTK/PI3K/AKT/mTOR signaling in human U87 cells assessed as up regulation of PAQR5 gene expression at cytotoxic IC50 measured after 48 hrs relative to control"}, "[18]": {"experiment": "Inhibition of RTK/PI3K/AKT/mTOR signaling in human U87 cells assessed as up regulation of UNC13D gene expression at cytotoxic IC50 measured after 48 hrs relative to control"}, "[19]": {"experiment": "Inhibition of RTK/PI3K/AKT/mTOR signaling in human U87 cells assessed as up regulation of PDE9A gene expression at cytotoxic IC50 measured after 48 hrs relative to control"}, "[20]": {"experiment": "Inhibition of RTK/PI3K/AKT/mTOR signaling in human U87 cells assessed as up regulation of DBP gene expression at cytotoxic IC50 measured after 48 hrs relative to control"}, "[21]": {"experiment": "Inhibition of RTK/PI3K/AKT/mTOR signaling in human U87 cells assessed as up regulation of LIM and calponin homology domains 1 gene expression at cytotoxic IC50 measured after 48 hrs relative to control"}, "[22]": {"experiment": "Inhibition of RTK/PI3K/AKT/mTOR signaling in human U87 cells assessed as up regulation of integrin subunit alpha 6 gene expression at cytotoxic IC50 measured after 48 hrs relative to control"}, "[23]": {"experiment": "Inhibition of RTK/PI3K/AKT/mTOR signaling in human U87 cells assessed as up regulation of MOB kinase activator 3A gene expression at cytotoxic IC50 measured after 48 hrs relative to control"}, "[24]": {"experiment": "Inhibition of RTK/PI3K/AKT/mTOR signaling in human U87 cells assessed as up regulation of nectin cell adhesion molecule 3 gene expression at cytotoxic IC50 measured after 48 hrs relative to control"}, "[25]": {"experiment": "Inhibition of RTK/PI3K/AKT/mTOR signaling in human U87 cells assessed as up regulation of coiled-coil domain containing 85C gene expression at cytotoxic IC50 measured after 48 hrs relative to control"}, "[26]": {"experiment": "Inhibition of RTK/PI3K/AKT/mTOR signaling in human U87 cells assessed as up regulation of ubiquitin conjugating enzyme E2 E1 gene expression at cytotoxic IC50 measured after 48 hrs relative to control"}, "[27]": {"experiment": "Inhibition of RTK/PI3K/AKT/mTOR signaling in human U87 cells assessed as up regulation of DnaJ heat shock protein family (Hsp40) member C10 gene expression at cytotoxic IC50 measured after 48 hrs relative to control"}, "[28]": {"experiment": "Inhibition of RTK/PI3K/AKT/mTOR signaling in human U87 cells assessed as up regulation of lipopolysaccharide induced TNF factor gene expression at cytotoxic IC50 measured after 48 hrs relative to control"}, "[29]": {"experiment": "Inhibition of RTK/PI3K/AKT/mTOR signaling in human U87 cells assessed as up regulation of transmembrane protein 18 gene expression at cytotoxic IC50 measured after 48 hrs relative to control"}, "[30]": {"experiment": "Inhibition of RTK/PI3K/AKT/mTOR signaling in human U87 cells assessed as up regulation of round spermatid basic protein 1 gene expression at cytotoxic IC50 measured after 48 hrs relative to control"}, "[31]": {"experiment": "Inhibition of RTK/PI3K/AKT/mTOR signaling in human U87 cells assessed as up regulation of AHNAK gene expression at cytotoxic IC50 measured after 48 hrs relative to control"}, "[32]": {"experiment": "Inhibition of RTK/PI3K/AKT/mTOR signaling in human U87 cells assessed as up regulation of HDLBP gene expression at cytotoxic IC50 measured after 48 hrs relative to control"}},
  "note": "The source gives many values for each of these; only a part stands here.",
  "data": [
    {"molecule": "CC(=O)C(=NNc1ccccc1C#N)C(C)=O", "values": [
      {"measurement": "log2FC", "setting": "[1]", "result": -3.54},
      {"measurement": "log2FC", "setting": "[2]", "result": -2.1},
      {"measurement": "log2FC", "setting": "[3]", "result": -1.31},
      {"measurement": "log2FC", "setting": "[4]", "result": -1.17},
      {"measurement": "log2FC", "setting": "[5]", "result": -1.08},
      {"measurement": "log2FC", "setting": "[6]", "result": -0.838},
      {"measurement": "log2FC", "setting": "[7]", "result": -0.821},
      {"measurement": "log2FC", "setting": "[8]", "result": -0.794},
      {"measurement": "log2FC", "setting": "[9]", "result": -0.696},
      {"measurement": "log2FC", "setting": "[10]", "result": -0.681},
      {"measurement": "log2FC", "setting": "[11]", "result": -0.647},
      {"measurement": "log2FC", "setting": "[12]", "result": -0.639},
      {"measurement": "log2FC", "setting": "[13]", "result": -0.634},
      {"measurement": "log2FC", "setting": "[14]", "result": -0.564},
      {"measurement": "log2FC", "setting": "[15]", "result": -0.468},
      {"measurement": "log2FC", "setting": "[16]", "result": 3.24},
      {"measurement": "log2FC", "setting": "[17]", "result": 2.42},
      {"measurement": "log2FC", "setting": "[18]", "result": 2.34},
      {"measurement": "log2FC", "setting": "[19]", "result": 1.96},
      {"measurement": "log2FC", "setting": "[20]", "result": 1.72},
      {"measurement": "log2FC", "setting": "[21]", "result": 1.56},
      {"measurement": "log2FC", "setting": "[22]", "result": 1.01},
      {"measurement": "log2FC", "setting": "[23]", "result": 0.982},
      {"measurement": "log2FC", "setting": "[24]", "result": 0.899},
      {"measurement": "log2FC", "setting": "[25]", "result": 0.813},
      {"measurement": "log2FC", "setting": "[26]", "result": 0.807},
      {"measurement": "log2FC", "setting": "[27]", "result": 0.801},
      {"measurement": "log2FC", "setting": "[28]", "result": 0.77},
      {"measurement": "log2FC", "setting": "[29]", "result": 0.721},
      {"measurement": "log2FC", "setting": "[30]", "result": 0.686},
      {"measurement": "log2FC", "setting": "[31]", "result": 0.558},
      {"measurement": "log2FC", "setting": "[32]", "result": 0.435}
    ]}
  ]
}
